Assay [1] addresses N-terminal Flag-tagged full-length FBXW7 (UniProt Q8VBV4). Briefly: co-IP; 293T cells with Flag-FBXW7 and HA-S6K1; IP lysis buffer 25 mM Tris-HCl, 150 mM NaCl, 1% NP-40; anti-Flag-tag antibody, anti-HA-tag antibody or IgG with protein A/G beads overnight at 4 °C.
In assay [2] the target is FBXW7 (endogenous) (mouse (endogenous in brown fat and brown adipocytes)) (UniProt Q8VBV4). Briefly: co-IP; endogenous, brown adipocytes (Appendix Fig. S11H).
The target is the same in assay [3]. Briefly: co-IP; endogenous, brown fat tissue of mice; anti-FBXW7 antibody, anti-S6K1 antibody or IgG with protein A/G beads overnight at 4 °C.

Amino acid sequences for entries named in this document (tags omitted).
UniProt Q8VBV4: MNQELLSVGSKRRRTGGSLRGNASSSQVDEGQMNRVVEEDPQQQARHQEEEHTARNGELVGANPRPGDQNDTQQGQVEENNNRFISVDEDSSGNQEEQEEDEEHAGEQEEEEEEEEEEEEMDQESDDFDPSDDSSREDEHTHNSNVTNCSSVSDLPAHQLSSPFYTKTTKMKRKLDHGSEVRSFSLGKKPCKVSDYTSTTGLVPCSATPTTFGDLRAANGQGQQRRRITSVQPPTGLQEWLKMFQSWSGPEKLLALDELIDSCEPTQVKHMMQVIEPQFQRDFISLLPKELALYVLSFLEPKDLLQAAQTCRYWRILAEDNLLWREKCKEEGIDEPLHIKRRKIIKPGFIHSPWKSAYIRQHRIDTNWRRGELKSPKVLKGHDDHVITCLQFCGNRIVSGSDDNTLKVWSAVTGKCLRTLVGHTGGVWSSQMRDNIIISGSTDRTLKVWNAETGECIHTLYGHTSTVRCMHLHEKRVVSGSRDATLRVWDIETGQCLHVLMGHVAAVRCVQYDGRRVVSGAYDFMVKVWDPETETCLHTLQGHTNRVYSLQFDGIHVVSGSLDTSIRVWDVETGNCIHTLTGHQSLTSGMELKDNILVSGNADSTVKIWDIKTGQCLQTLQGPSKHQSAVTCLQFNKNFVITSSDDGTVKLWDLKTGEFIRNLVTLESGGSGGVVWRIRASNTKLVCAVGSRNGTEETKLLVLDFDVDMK
UniProt Q8BSK8: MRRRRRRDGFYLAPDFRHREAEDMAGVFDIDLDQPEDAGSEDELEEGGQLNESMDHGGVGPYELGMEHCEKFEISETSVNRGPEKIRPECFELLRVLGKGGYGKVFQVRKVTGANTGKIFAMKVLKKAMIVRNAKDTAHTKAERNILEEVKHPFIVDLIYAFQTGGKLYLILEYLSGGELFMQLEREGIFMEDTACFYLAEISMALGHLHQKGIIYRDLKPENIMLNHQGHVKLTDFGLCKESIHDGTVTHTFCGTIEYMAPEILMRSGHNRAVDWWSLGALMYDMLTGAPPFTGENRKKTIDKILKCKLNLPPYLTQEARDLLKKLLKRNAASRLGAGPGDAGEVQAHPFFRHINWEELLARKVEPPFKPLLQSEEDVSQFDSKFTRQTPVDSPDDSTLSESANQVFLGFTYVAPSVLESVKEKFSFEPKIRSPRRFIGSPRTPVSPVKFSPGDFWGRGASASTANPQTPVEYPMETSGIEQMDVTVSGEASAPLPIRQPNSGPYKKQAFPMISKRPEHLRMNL

Results are given in words; binding and its absence hold for the method and conditions named. In cells and extracts the contact can be indirect. Some binding calls cover weakened binding; strength is not graded here.

For the substance “HA-tagged S6K1 (from UniProt Q8BSK8 1-525)”, the binding entry in assay [1] was “binds”.

Take “S6K1 (endogenous) (from UniProt Q8BSK8 1-525)”: the binding result in assay [2] and in assay [3] was “binds” in each case.

These data come from publication PMC11811183.
